Laboratory results: PubChem BioAssay AID1508597 (Cure First, 2020)

- Assay: 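Genes whose silencing sensitises or protects ovarian cancer cells against rucaparib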 (primary screen)
- System: human ovarian carcinoma lines grown from tumours: OCI-P5x (papillary serous) and OCI-C5x (clear cell)
- Reagent: siRNA pool against human genes, 1.25 pmol siRNA per well
- Duration: 72 h or 96 h, depending on the cell culture
- Challenge: rucaparib 20 µM (about IC30) or vehicle, present until read-out
- Rucaparib or vehicle: Vehicle
- Cell line: OCI-P5x (serous)
- Measured: 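Luminescent ATP-based viability assay read 72 or 96 h after transfection, depending on culture, given as normalised percent viability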
- Reading the numbers: viability, normalised: higher = more viable cells remaining
- Active means: 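a well counts as a hit if its normalised viability is under 80 percent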
- Calls: active = viability under 80%; inactive = viability 80% or more
This is an unselected part of the about 2,100 reagents, under one of the conditions tested. 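Calls flag viability under 80% in either arm, not effects specific to rucaparib; the reference for percent is not stated.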 A reagent listed more than once was tested more than once; the source does not tell the runs apart. No sequences are given here. Not given: the 100% reference.

target gene	technical replicate	viability, normalised (%)	Call
HDAC8 (histone deacetylase 8)	1	95.6	inactive
HDAC8 (histone deacetylase 8)	2	96.1	inactive
HDAC8 (histone deacetylase 8)	3	84.5	inactive
TRIM24 (tripartite motif containing 24)	1	37.2	active
TRIM24 (tripartite motif containing 24)	1	68.4	active
TRIM24 (tripartite motif containing 24)	2	100	inactive
TRIM24 (tripartite motif containing 24)	2	64	active
TRIM24 (tripartite motif containing 24)	3	99.6	inactive
TRIM24 (tripartite motif containing 24)	3	98.4	inactive
DHX33 (DEAH-box helicase 33)	1	69.5	active
DHX33 (DEAH-box helicase 33)	2	76.9	active
DHX33 (DEAH-box helicase 33)	3	73.5	active
MLKL (mixed lineage kinase domain like pseudokinase)	1	80.5	inactive
MLKL (mixed lineage kinase domain like pseudokinase)	2	97.9	inactive
MLKL (mixed lineage kinase domain like pseudokinase)	3	104	inactive
SMPDL3A (sphingomyelin phosphodiesterase acid like 3A)	1	68.7	active
SMPDL3A (sphingomyelin phosphodiesterase acid like 3A)	2	62.6	active
SMPDL3A (sphingomyelin phosphodiesterase acid like 3A)	3	66.7	active
NEK7 (NIMA related kinase 7)	1	85.5	inactive
NEK7 (NIMA related kinase 7)	2	66.4	active
NEK7 (NIMA related kinase 7)	3	65.7	active

Reformatted: results already given.
target gene,technical replicate,"viability, normalised (%)",Call
TRIM24 (tripartite motif containing 24),1,37.2,active
TRIM24 (tripartite motif containing 24),1,68.4,active
TRIM24 (tripartite motif containing 24),2,100,inactive
TRIM24 (tripartite motif containing 24),2,64,active

The results go on:
target gene	technical replicate	viability, normalised (%)	Call
PDE4B (phosphodiesterase 4B)	1	52.6	active
PDE4B (phosphodiesterase 4B)	2	59.7	active
PDE4B (phosphodiesterase 4B)	3	63.5	active
MYPOP (Myb related transcription factor, partner of profilin)	1	44	active
MYPOP (Myb related transcription factor, partner of profilin)	2	39.3	active
MYPOP (Myb related transcription factor, partner of profilin)	3	42.8	active
PMS1 (PMS1 homolog 1, mismatch repair system component)	1	76.9	active
PMS1 (PMS1 homolog 1, mismatch repair system component)	2	78.9	active
PMS1 (PMS1 homolog 1, mismatch repair system component)	3	74.9	active
MSX1 (msh homeobox 1)	1	79.8	active
MSX1 (msh homeobox 1)	2	83	inactive
MSX1 (msh homeobox 1)	3	82.7	inactive
PDE7B (phosphodiesterase 7B)	1	50.4	active
PDE7B (phosphodiesterase 7B)	2	72.3	active
PDE7B (phosphodiesterase 7B)	3	71.4	active
ARSA (arylsulfatase A)	1	93.8	inactive
ARSA (arylsulfatase A)	2	93.1	inactive
ARSA (arylsulfatase A)	3	86	inactive
ERCC5 (ERCC excision repair 5, endonuclease)	1	69.4	active
ERCC5 (ERCC excision repair 5, endonuclease)	2	64	active
ERCC5 (ERCC excision repair 5, endonuclease)	3	66.6	active
TLR8 (toll like receptor 8)	1	66.8	active
TLR8 (toll like receptor 8)	2	80.6	inactive
TLR8 (toll like receptor 8)	3	57.2	active
HIPK1 (homeodomain interacting protein kinase 1)	1	101	inactive
HIPK1 (homeodomain interacting protein kinase 1)	2	84.1	inactive
HIPK1 (homeodomain interacting protein kinase 1)	3	83.3	inactive
SUV39H2 (SUV39H2 histone lysine methyltransferase)	1	51.6	active
SUV39H2 (SUV39H2 histone lysine methyltransferase)	2	51.2	active
SUV39H2 (SUV39H2 histone lysine methyltransferase)	3	40.4	active
PCDHB11 (protocadherin beta 11)	1	59.2	active
PCDHB11 (protocadherin beta 11)	2	58.5	active
PCDHB11 (protocadherin beta 11)	3	83.5	inactive
PALB2 (partner and localizer of BRCA2)	1	125	inactive
PALB2 (partner and localizer of BRCA2)	1	48.6	active
PALB2 (partner and localizer of BRCA2)	2	131	inactive
PALB2 (partner and localizer of BRCA2)	2	49	active
PALB2 (partner and localizer of BRCA2)	3	112	inactive
PALB2 (partner and localizer of BRCA2)	3	56.9	active
